From patent US20150259420A1
Residue numbers refer to the chain shown, from its start. Results are given in words; binding and its absence hold for the method and conditions named. Some results given as binding are weak or reduced against the parent protein; the word gives no strength. For some of these results: Tags and fused reporters may be left off the sequences shown. Each block holds one binder with its values, some of them ahead of it.

Legend:
[1] = target: T1, LAG-3 with D2 deletion expressed on CHO cells (UniProt P18627); assay: binding to transfected CHO cells
T1 sequence (looked up): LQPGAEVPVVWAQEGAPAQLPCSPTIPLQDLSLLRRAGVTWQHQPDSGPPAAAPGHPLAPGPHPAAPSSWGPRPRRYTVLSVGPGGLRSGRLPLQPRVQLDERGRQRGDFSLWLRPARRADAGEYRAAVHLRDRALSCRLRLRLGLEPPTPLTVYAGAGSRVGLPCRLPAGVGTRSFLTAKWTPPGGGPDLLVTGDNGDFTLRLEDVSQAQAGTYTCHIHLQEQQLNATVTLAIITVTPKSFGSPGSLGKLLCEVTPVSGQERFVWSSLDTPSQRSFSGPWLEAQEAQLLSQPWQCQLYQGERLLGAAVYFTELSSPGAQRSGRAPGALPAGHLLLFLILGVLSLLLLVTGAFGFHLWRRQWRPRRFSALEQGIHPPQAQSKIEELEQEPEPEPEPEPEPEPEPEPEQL

[2] = target: T2, LAG-3 with partial deletion of D1 extra loop expressed on CHO cells (UniProt P18627); assay: binding to transfected CHO cells
T2 sequence (looked up): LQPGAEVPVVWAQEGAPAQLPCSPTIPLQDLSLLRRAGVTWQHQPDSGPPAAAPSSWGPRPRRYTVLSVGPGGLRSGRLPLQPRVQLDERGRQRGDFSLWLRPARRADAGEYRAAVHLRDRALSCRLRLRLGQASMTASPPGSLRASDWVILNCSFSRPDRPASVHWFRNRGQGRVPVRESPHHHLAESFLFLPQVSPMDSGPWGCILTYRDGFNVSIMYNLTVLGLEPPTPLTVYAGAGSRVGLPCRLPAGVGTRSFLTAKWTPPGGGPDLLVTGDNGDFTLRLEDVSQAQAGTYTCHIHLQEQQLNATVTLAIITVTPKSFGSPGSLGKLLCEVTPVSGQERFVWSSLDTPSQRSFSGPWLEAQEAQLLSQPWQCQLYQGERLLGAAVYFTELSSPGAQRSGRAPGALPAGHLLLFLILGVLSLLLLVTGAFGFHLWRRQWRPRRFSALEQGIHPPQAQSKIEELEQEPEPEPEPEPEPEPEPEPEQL

[3] = target: T3, LAG-3-huIgG1 Fc fusion protein (human) (UniProt P18627); assay: flow cytometry: blocking of LAG-3-huIgG1 Fc binding to Daudi cells
T3 sequence (looked up): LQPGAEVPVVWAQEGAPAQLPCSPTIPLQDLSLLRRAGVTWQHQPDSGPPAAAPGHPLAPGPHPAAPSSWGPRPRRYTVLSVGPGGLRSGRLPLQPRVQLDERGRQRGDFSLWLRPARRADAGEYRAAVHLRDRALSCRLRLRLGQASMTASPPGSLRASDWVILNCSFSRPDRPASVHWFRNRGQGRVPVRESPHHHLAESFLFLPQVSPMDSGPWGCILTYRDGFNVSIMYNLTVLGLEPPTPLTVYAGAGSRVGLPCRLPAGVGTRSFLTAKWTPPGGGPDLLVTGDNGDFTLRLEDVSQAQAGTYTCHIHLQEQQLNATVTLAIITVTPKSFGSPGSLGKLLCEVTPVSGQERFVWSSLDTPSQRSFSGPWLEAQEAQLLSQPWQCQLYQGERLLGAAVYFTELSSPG

[4] = target: T3, LAG-3-huIgG1 Fc fusion protein (human); assay: blocking FACS: serial dilutions of mAb with LAG-3-huIgG1 Fc at a constant 2 µg/mL on Daudi cells, 4 C, 30 min; bound LAG-3-Ig detected with PE anti-human IgG F(ab')2; blocked ligand: MHC class II on Daudi cells
[5] = target: T4, human LAG-3 expressed on cells (human) (UniProt P18627); assay: FACS competition on LAG-3-expressing CHO cells; competitor: FITC-labeled BAP050
T4 sequence (looked up): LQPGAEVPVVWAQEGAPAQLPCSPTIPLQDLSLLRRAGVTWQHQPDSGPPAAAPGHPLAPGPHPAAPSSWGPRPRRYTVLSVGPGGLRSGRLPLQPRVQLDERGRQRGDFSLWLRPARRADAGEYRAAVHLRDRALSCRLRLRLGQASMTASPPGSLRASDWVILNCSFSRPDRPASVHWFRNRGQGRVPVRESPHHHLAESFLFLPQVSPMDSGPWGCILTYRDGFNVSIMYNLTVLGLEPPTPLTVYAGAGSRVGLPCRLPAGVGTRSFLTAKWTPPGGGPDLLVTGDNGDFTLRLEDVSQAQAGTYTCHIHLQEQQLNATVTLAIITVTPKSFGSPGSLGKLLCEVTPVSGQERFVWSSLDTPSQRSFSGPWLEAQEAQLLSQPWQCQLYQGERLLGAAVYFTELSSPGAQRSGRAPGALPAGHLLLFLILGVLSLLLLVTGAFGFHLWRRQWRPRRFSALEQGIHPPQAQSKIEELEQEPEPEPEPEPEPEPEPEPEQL

[6] = target: T4, human LAG-3 expressed on cells (human); assay: binding test on LAG-3-transfected CHO cells
[7] = target: T4, human LAG-3 expressed on cells (human); assay: FACS binding, FIG. 3
[8] = target: T4, human LAG-3 expressed on cells (human); assay: competition FACS on LAG-3-expressing CHO cells: serial dilutions of unlabelled test mAb against a constant concentration of FITC-labelled murine mAb BAP050, 4 C, 30 min; MFI of bound labelled mAb (Experiment 2)
[9] = target: T4, human LAG-3 expressed on cells (human); assay: FACS binding of the mAb (CHO culture supernatant) at 200, 100, 50, 25 and 12.5 ng/ml to LAG-3-expressing cells; median fluorescence
[10] = target: T4, human LAG-3 expressed on cells (human); assay: competition FACS on LAG-3-expressing CHO cells: serial dilutions of unlabelled test mAb against a constant concentration of FITC-labelled murine mAb BAP050, 4 C, 30 min; MFI of bound labelled mAb (Experiment 1)

binding [1]: binds
binding [2]: binds
binding [3]: binds
binding [4]: binds
B1: murine anti-LAG-3 monoclonal antibody BAP050 (antibody, V domains shown)
VH: QIQLVQSGPELKKPGETVKISCKASGFTLTNYGMNWVRQTPGKGLKWMGWINTDTGEPTYADDFKGRFAFSLETSASTASLQINNLKNADTATYFCARNPPYYYGTNNAEAMDYWGQGTAVTVSS
VL: DIQMTQTTSSLSASLGDRVTISCSSSQDISNYLNWYQQKPDGTVKVLIYYTSTLHLGVPSRFSGSGSGTDYSLTISNLELEDIATYYCQQYYNLPWTFGGGTKLEIK

binding [3]: binds
binding [4]: binds
B2: chimeric mAb BAP050-chi (antibody, human IgG4 S228P, kappa, V domains shown)
VH: B1 VH with A120T
VL: DIQMTQTTSSLSASLGDRVTISCSSSQDISNYLNWYQQKPDGTVKVLIYYTSTLHLGVPSRFSGSGSGTDYSLTISNLELEDIATYYCQQYYNLPWTFGQGTKVEIKR

binding [3]: binds
binding [4]: binds
B3: BAP050-hum02-Ser (antibody, human IgG4 S228P, kappa, V domains shown)
VH: EVQLVQSGAEVKKPGATVKISCKVSGFTLTNYGMNWVRQAPGQGLEWMGWINTDTGEPTYADDFKGRFVFSLDTSVSTAYLQISSLKAEDTAVYYCARNPPYYYGTNNAEAMDYWGQGTTVTVSS
VL: DIQMTQSPSSLSASVGDRVTITCSSSQDISNYLNWYQQKPGKAPKLLIYYTSTLHLGIPPRFSGSGYGTDFTLTINNIESEDAAYYFCQQYYNLPWTFGQGTKVEIKR

binding [3]: binds
binding [4]: binds
B4: BAP050-hum11-Ser (antibody, human IgG4 S228P, kappa, V domains shown)
VH: B3 VH with E1Q, T17S, I20V, V24A, P41R, G44R, M48I
VL: DIQMTQSPSSLSASVGDRVTITCSSSQDISNYLNWYLQKPGQSPQLLIYYTSTLHLGVPSRFSGSGSGTEFTLTISSLQPDDFATYYCQQYYNLPWTFGQGTKVEIKR

binding [5]: binds
binding [6]: binds
binding [7]: binds
binding [8]: binds
binding [9]: binds
binding [10]: binds
B5: BAP050-hum10 (antibody, human IgG4 S228P, kappa, V domains shown)
VH: B3 VH with E1Q, T17S, I20V, V24A, P41R, G44R, M48I, S84C
VL: EIVLTQSPATLPVTLGQPASISCSSSQDISNYLNWYQQKPGQAPRLLIYYTSTLHLGVPSRFSGSGSGTDFTFTISSLEAEDAATYYCQQYYNLPWTFGQGTKVEIKR

binding [3]: binds
binding [4]: binds
B6: BAP050-hum12-Ser (antibody, human IgG4 S228P, kappa, V domains shown)
VH: B3 VH with E1Q, T17S, I20V, V24A, P41R, G44R, M48I
VL: EIVLTQSPDFQSVTPKEKVTITCSSSQDISNYLNWYQQKPGQAPRLLIYYTSTLHLGVPSRFSGSGSGTDFTLTISSLQPEDFATYYCQQYYNLPWTFGQGTKVEIKR

binding [3]: binds
binding [4]: binds
B7: BAP050-hum09-Ser (antibody, human IgG4 S228P, kappa, V domains shown)
VH: B3 VH with E1Q, T17S, I20V, V24A, P41R, G44R, M48I
VL: B3 VL

binding [3]: binds
binding [4]: binds
B8: BAP050-hum13-Ser (antibody, human IgG4 S228P, kappa, V domains shown)
VH: B3 VH with E1Q, T17S, I20V, V24A
VL: B3 VL

binding [5]: binds
binding [6]: binds
binding [7]: binds
binding [8]: binds
binding [9]: binds
binding [10]: binds
B9: BAP050-hum14 (antibody, human IgG4 S228P, kappa, V domains shown)
VH: B3 VH with V37I, A40S, G42S, Q43R, M48L, S84C
VL: B5 VL
